Assay results taken from PMC5269733.
No constants are given. Whether binding was seen depends on the method and setting. In cells and extracts the contact can be indirect. Some entries that bind do so weakly or less than the wild type. For some of these results: Sequences can lack the tags named with a protein. One block for each substance: values may come before it.

Amino acid sequences for entries named in this document (tags omitted).
UniProt Q92793: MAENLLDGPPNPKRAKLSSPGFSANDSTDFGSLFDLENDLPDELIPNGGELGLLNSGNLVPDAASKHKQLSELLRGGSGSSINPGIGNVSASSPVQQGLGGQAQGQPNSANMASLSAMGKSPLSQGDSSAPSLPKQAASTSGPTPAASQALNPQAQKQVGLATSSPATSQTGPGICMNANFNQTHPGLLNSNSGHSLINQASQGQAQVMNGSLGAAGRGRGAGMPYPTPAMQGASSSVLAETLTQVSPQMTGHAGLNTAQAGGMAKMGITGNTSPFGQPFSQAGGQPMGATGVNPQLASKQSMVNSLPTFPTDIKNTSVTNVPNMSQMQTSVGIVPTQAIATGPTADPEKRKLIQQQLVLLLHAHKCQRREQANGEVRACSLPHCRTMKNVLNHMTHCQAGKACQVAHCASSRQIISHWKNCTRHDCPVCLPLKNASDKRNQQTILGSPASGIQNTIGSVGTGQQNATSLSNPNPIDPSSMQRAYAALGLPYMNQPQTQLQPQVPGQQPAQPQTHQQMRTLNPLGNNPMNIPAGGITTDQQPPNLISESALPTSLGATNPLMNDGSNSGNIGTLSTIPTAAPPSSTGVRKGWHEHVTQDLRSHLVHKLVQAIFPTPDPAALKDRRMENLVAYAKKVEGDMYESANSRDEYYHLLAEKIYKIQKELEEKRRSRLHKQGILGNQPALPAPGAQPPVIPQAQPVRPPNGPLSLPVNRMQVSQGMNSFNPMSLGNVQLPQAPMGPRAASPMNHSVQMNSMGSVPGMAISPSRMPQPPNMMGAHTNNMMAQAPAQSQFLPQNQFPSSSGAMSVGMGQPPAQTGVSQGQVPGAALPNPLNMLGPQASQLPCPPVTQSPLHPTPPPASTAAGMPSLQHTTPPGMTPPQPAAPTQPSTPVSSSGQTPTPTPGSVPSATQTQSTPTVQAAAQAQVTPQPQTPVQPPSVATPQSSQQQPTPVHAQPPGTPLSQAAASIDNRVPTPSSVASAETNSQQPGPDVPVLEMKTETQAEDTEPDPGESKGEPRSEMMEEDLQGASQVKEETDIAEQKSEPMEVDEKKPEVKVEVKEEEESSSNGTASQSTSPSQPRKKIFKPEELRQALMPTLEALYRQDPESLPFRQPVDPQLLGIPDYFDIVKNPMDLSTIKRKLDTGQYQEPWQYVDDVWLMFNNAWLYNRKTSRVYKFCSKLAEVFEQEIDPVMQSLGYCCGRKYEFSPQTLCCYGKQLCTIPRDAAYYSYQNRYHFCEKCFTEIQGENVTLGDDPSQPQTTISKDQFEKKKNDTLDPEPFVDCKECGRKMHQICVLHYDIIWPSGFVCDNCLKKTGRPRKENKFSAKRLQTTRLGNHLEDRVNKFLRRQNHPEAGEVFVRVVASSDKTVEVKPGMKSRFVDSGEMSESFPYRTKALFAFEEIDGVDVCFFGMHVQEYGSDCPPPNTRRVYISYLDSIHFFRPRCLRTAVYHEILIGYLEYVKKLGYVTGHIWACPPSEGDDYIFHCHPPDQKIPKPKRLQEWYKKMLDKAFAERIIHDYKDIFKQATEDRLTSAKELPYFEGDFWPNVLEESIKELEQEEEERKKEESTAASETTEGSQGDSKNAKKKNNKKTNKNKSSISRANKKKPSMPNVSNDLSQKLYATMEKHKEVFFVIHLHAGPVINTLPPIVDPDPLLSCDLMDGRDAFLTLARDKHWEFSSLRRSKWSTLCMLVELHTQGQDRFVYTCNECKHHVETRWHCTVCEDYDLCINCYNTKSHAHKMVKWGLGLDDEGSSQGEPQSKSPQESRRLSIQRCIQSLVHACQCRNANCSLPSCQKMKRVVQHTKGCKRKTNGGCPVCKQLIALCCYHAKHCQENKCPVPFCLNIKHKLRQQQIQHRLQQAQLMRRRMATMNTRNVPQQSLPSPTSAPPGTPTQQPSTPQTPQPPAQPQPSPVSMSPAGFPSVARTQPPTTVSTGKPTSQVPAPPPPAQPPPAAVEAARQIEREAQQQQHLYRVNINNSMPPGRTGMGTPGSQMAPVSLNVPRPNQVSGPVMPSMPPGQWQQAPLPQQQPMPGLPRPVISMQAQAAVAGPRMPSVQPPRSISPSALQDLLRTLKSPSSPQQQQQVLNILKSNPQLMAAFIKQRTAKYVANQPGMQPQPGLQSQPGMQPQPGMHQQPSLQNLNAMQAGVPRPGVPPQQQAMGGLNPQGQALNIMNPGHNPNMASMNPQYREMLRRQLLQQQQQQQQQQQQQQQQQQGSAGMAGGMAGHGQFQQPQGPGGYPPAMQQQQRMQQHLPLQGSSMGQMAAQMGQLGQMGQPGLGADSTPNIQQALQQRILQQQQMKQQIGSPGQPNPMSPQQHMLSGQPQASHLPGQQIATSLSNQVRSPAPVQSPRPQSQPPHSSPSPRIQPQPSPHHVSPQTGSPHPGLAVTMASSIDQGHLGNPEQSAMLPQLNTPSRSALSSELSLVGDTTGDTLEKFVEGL
UniProt Q09472: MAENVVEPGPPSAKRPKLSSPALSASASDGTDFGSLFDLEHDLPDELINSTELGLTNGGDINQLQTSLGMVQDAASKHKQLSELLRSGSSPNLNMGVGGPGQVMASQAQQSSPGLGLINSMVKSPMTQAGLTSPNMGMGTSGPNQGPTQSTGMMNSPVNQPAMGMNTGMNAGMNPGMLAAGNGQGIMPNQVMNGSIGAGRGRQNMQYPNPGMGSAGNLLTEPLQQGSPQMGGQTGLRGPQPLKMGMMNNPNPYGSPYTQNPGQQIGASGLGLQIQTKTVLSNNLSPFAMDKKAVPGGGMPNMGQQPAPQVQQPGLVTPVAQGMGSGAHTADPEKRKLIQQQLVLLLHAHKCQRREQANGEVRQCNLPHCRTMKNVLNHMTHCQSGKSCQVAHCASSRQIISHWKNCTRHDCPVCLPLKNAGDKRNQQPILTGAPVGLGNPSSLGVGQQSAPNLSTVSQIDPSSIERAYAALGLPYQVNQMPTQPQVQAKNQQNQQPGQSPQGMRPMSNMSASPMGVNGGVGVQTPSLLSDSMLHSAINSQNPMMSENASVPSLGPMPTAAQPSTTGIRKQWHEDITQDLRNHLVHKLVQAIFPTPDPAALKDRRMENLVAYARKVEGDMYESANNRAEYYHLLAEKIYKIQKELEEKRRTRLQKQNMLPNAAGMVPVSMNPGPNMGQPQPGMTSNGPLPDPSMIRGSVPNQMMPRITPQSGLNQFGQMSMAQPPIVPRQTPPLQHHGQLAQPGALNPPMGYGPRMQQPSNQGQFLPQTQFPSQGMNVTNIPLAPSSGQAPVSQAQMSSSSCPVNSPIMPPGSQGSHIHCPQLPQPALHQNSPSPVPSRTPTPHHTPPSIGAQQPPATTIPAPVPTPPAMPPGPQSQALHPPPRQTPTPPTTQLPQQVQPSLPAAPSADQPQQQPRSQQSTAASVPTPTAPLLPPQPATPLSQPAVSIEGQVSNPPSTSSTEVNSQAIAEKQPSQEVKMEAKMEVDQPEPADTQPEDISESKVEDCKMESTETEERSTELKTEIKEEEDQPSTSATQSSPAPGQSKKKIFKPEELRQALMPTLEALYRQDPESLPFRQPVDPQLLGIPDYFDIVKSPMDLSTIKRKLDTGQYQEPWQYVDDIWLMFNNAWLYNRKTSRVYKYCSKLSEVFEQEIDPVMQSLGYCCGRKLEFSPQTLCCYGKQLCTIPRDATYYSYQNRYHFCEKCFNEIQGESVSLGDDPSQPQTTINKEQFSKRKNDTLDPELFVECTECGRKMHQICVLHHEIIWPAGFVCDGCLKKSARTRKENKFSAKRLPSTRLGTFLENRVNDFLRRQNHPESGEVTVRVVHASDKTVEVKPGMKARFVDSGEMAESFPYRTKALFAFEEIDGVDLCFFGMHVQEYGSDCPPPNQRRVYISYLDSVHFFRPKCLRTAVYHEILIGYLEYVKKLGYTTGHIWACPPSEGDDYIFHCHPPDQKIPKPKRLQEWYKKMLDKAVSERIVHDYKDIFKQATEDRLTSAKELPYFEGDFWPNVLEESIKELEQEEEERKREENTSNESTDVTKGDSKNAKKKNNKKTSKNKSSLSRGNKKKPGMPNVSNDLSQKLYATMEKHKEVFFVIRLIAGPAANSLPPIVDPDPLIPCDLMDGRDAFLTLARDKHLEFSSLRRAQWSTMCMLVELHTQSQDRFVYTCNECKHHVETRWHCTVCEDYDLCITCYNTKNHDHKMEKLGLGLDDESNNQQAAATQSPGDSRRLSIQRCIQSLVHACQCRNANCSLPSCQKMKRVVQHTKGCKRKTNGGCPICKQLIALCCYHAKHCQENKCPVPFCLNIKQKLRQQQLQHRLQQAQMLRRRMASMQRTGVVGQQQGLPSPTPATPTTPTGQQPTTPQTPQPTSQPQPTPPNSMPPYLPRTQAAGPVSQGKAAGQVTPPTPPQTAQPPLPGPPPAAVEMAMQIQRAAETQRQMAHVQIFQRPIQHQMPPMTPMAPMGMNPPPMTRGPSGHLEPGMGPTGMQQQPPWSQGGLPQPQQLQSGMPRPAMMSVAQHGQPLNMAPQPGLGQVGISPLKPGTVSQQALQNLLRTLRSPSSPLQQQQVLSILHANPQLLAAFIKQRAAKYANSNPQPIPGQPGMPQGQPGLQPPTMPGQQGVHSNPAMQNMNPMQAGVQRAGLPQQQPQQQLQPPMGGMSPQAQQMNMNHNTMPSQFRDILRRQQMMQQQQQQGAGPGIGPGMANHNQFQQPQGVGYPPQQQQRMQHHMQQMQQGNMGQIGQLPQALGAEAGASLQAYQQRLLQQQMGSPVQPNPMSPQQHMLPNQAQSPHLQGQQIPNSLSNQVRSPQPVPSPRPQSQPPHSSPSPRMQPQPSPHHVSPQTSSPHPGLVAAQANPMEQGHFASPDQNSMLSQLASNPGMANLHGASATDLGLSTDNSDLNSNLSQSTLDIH
UniProt O00571: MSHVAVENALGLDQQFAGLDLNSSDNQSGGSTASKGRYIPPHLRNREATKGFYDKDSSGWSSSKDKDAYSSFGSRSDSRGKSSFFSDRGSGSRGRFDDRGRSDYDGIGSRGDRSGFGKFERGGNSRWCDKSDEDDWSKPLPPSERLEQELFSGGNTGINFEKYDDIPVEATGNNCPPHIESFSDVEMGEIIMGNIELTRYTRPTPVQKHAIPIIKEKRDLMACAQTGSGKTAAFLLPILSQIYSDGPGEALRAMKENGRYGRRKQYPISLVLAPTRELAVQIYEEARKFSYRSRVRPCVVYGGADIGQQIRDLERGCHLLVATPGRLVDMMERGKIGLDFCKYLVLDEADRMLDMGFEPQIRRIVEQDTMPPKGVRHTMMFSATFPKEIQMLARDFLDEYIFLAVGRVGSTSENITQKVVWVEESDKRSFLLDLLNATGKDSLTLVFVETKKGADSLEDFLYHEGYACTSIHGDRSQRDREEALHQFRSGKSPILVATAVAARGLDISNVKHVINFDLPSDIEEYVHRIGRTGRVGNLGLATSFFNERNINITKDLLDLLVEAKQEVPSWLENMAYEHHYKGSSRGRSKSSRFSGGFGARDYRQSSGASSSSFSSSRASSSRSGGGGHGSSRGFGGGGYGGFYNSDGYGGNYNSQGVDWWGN

Legend:
[1] = molecular target: CREB-binding protein (CBP) (human (endogenous in HuH7)) (UniProt Q92793); assay: co-IP; nuclear extracts (200 ug) of HuH7 cells expressing HA-DDX3; antibodies against endogenous CBP or p300 on protein G Sepharose; anti-HA blot; IgG as control
[2] = molecular target: p300 (human (endogenous in HuH7)) (UniProt Q09472); assay: as above
Flag-tagged HNF4 = molecular target: T1, Flag-tagged HNF4 (UniProt P41235); assay: co-IP; competition assay: purified GST-DDX3 (0, 5 and 10 ug) added to washed anti-Flag M2 beads that held Flag-HNF4 with HA-SHP from HuH7 lysate; blot with anti-DDX3; only the binder purified
T1 sequence: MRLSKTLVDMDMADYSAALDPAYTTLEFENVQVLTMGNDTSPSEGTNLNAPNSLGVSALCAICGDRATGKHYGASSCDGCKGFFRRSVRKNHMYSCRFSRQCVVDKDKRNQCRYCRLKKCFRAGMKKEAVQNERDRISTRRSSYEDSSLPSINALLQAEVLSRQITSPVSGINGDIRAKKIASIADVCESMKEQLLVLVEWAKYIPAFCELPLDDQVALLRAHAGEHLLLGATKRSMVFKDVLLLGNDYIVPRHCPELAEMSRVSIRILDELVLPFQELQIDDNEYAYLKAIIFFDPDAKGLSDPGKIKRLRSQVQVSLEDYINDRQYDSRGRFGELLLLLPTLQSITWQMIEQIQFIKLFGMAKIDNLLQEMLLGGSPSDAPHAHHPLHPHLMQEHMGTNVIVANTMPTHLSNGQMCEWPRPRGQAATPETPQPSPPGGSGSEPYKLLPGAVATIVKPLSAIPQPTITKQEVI

[3] = molecular target: T2, HA-tagged SHP (small heterodimer partner) (UniProt Q15466); assay: co-IP; RNase A-treated nuclear extracts (200 ug) of HuH7 cells co-expressing Flag-DDX3 with HA-SHP or HA-HNF4; anti-HA agarose or anti-Flag M2 resin; 20 mM Tris-HCl pH 7.5, 150 mM NaCl, 10% glycerol, 1% Triton X-100, 4 C overnight
T2 sequence: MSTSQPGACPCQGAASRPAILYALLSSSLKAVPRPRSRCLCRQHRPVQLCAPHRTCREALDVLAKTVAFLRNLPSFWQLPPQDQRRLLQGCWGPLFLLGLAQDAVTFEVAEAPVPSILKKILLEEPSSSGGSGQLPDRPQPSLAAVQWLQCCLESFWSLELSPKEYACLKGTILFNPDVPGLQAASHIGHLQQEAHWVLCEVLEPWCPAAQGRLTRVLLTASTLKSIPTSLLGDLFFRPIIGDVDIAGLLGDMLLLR

binding [1]: binds
binding [2]: binds
Substance: HA-tagged DDX3 (from UniProt O00571 1-662)

binding (Flag-tagged HNF4): binds
Substance: GST-tagged full length DDX3 (from UniProt O00571 1-662)

binding [3]: binds
Substance: Flag-tagged DDX3 (from UniProt O00571 1-662)
